Here are results for six substances from paper PMC2680019.

Substitutions are numbered along the chain they refer to. These are yes or no findings as the source states them, for the method shown. In cells and extracts the contact can be indirect. Binding calls can cover weak binding; strength is not graded here. Where a sequence is shown, tags or fusion partners need not be part of it.

The target in assay [1] is T1, Myc-tagged Tensin2 1-1409 (WT, wild-type) (UniProt Q63HR2).
T1 sequence: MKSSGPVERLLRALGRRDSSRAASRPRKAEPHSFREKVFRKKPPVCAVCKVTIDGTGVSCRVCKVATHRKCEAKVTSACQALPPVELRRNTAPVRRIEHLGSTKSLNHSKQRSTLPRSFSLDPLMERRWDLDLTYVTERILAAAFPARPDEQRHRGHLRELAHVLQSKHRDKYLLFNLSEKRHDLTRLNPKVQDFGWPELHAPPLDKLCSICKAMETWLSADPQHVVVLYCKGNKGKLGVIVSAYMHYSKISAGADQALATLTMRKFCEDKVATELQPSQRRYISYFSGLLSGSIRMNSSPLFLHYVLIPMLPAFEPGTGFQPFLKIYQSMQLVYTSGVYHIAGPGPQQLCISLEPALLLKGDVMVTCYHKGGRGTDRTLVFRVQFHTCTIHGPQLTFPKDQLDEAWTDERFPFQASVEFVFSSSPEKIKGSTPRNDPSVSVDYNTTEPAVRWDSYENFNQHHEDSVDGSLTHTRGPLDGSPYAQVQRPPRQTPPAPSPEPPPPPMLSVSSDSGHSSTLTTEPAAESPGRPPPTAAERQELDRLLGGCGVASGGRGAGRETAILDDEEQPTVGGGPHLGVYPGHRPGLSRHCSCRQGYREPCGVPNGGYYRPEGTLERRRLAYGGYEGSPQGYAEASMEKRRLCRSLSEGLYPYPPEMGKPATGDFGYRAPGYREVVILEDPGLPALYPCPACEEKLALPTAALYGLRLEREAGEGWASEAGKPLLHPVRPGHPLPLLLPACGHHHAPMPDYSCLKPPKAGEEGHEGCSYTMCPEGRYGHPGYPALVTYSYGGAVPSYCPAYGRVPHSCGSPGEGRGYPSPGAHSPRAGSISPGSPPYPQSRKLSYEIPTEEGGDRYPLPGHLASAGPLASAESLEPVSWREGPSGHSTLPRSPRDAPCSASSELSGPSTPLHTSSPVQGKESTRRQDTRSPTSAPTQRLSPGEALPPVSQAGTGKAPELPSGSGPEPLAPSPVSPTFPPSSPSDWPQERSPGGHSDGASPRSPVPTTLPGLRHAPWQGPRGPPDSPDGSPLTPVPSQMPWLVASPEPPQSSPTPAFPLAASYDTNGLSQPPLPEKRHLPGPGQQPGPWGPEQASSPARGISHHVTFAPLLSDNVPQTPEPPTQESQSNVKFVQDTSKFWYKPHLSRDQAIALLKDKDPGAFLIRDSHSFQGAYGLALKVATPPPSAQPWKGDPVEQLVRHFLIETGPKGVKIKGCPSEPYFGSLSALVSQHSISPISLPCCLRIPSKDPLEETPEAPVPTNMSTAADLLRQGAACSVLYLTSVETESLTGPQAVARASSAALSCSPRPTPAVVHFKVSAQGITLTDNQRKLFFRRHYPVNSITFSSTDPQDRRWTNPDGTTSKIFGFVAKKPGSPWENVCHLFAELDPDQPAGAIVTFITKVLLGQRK
In words: co-IP; HEK293T co-transfected with Myc-tagged tensin and FLAG-tagged DLC1 (or GFP-tagged DLC2); cleared lysate in NET-N buffer (25 mM Tris-HCl pH 8.0, 50 mM NaCl, 0.2 mM EDTA, 0.1% NP40); anti-Myc antibody overnight at 4°C, protein-A sepharose, 5 washes; blot with anti-FLAG (anti-GFP for DLC2).

The target in assay [2] is T2, Myc-tagged Tensin2 R1165A (UniProt Q63HR2).
T2 sequence: T1 sequence with R1165A
The assay is described as above.

In the case of “FLAG-tagged DLC1 1-370 (from UniProt Q96QB1-2) (domain or fragment)”, the binding result in assay [1] was “no binding”.
As for “FLAG-tagged DLC1 1-380 (from UniProt Q96QB1-2) (domain or fragment)”, the binding entry in assay [1] is listed as “no binding”.
For “FLAG-tagged DLC1 1-385 (from UniProt Q96QB1-1) (domain or fragment)”, the binding entry in assay [1] was “binds”.
Regarding “FLAG-tagged DLC1 1-440 (from UniProt Q96QB1-1) (domain or fragment)”, the binding result in assay [1] is given as “binds”.
For the substance FLAG-tagged DLC1 S440A (human), the binding result in assay [1] and in assay [2] was “binds” each time.
FLAG-tagged DLC1 Y442F (human): the binding result in assay [1] and in assay [2] was “binds” throughout.
